# In PubChem BioAssay AID504467 (National Center for Advancing Translational Sciences (NCATS), 2011):
# About 7,700 (2.3%) of roughly 330,000 compounds were called active. The inconclusive results got no clear call from the source; some entries with a clear call stand among them for comparison. Calls come from the whole dose curve; as a rule, active = well fitted inhibition curve with a large enough effect; inconclusive = small, poorly fitted or top-dose-only effect, or effect the other way; inactive = flat fitted curve, though single readings scatter. Where the call is inconclusive, the potency comes from a doubtful curve fit.
# Assay: qHTS screen for small molecules that inhibit ELG1-dependent DNA repair in human embryonic kidney (HEK293T) cells expressing luciferase-tagged ELG1; note: nearly all actives have a fitted effect of over 55% in size
# Conditions: HEK293T ELG1-luciferase reporter, luminescence, 16 h, DNA damage induced by 5-fluorouridine; activity change, negative = inhibition: at 46.1 µM (top of the series)
# Procedure, shortened: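 Step one: seed 2,000 cells per well. Step two: pin-transfer compound or DMSO alongside 5-fluorouridine. Step three: incubate 16 hr, 37 °C, 5% CO2. Step four: add ONE-Glo, wait 30 min, read luminescence.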
# % is set by controls: 0 for no effect and ±100 for the full control effect; potency is the fitted concentration of half-maximal effect.
Compound,"activity change, negative = inhibition",Potency
COc1cccc(CNC(=O)CN2CCC(c3nc4ccc(C)cc4[nH]3)CC2)c1,inactive: 1.08%,
N#C/C(=C\c1c[nH]c2ccccc12)C(=O)NC1CCCC1,,"inconclusive: 20.6 µM [activator, partial curve, poor fit]"
CC(C)n1c(=O)[nH][nH]c1=S,inactive: 1.18%,
COc1ccc2cc3cc(C(=O)NCCN4CCc5ccccc5C4)sc3nc2c1,,"inconclusive: 29.1 µM [inhibitor, single point]"
O=C(CSc1nnc(Cn2cnc3ccccc32)o1)c1ccccc1,,"inconclusive: 14.6 µM [inhibitor, partial curve, poor fit]"
CC(=O)Nc1ccc(OCCOc2ccc(NC(C)=O)cc2)cc1,,"inconclusive: 32.6 µM [activator, partial curve, poor fit]"
CCOC(=O)N/N=C/c1c(C)nn(-c2cccc(C(F)(F)F)c2)c1Cl,,active: 18.4 µM
N#Cc1ccccc1S(=O)(=O)N1CCN(CC(O)COc2ccccc2F)CC1 (configuration not stated),,"inconclusive: 32.6 µM [inhibitor, single point]"
CCN(CC)CC(=O)Nc1ccc(-c2nc3cc(NC(=O)CN(CC)CC)ccc3o2)cc1,,"inconclusive: 11.6 µM [activator, partial curve, poor fit]"
CC(=O)OCCCNc1cc(Sc2ccc(C)cc2)c2nonc2c1[N+](=O)[O-],,"inconclusive: 7.31 µM [inhibitor, partial curve]"
COCCN(C(=O)Cn1c(C(F)(F)F)nc2ccccc21)c1c(N)n(Cc2ccccc2)c(=O)[nH]c1=O,inactive: 10.6%,
N#CCC(=O)NN=C1CCCCCCCCCCC1,,"inconclusive: 6.51 µM [inhibitor, single point]"
COC(=O)CC(NS(=O)(=O)c1cccs1)c1ccccc1Cl (configuration not stated),,"inconclusive: 20.6 µM [inhibitor, single point]"
Cc1noc(C)c1CSCC(=O)Nc1nc2ccc(Oc3ccccc3)cc2s1,,"inconclusive: 29.1 µM [inhibitor, single point]"
Nc1nonc1OCCN1CCN(c2ccc([N+](=O)[O-])c3cccnc23)CC1,,"inconclusive: 16.4 µM [inhibitor, partial curve, poor fit]"
CCOc1ccc(-c2c[n+]3c(n2-c2ccccc2)CCCCC3)cc1,,"inconclusive: 1.3 µM [inhibitor, full curve]"
O=C(CSc1nncs1)Nc1ccc(N2CCCCC2)cc1,,"inconclusive: 20.6 µM [activator, partial curve, poor fit]"
C/C(CC(=O)Nc1ccc(Cl)cc1Cl)=N\NC(=O)c1ccncc1,,"inconclusive: 29.1 µM [inhibitor, single point]"
Cc1oc(-c2ccccc2Cl)nc1CN(C)C(C)c1ccon1 (configuration not stated),,"inconclusive: 29.1 µM [activator, single point]"
CCOC(=O)C1=C(C)NC2=C(C1c1ccc([N+](=O)[O-])cc1)S(=O)(=O)c1ccccc12 (configuration not stated),,active: 10.3 µM
CCCc1cc(=O)oc2cc(O[C@@H]3O[C@H](CO)[C@@H](O)[C@H](O)[C@H]3O)ccc12,inactive: -17.9%,

# Structural class: the compounds so far with a Cl atom.
Compound,"activity change, negative = inhibition",Potency
CCOC(=O)N/N=C/c1c(C)nn(-c2cccc(C(F)(F)F)c2)c1Cl,,active: 18.4 µM
COC(=O)CC(NS(=O)(=O)c1cccs1)c1ccccc1Cl (configuration not stated),,"inconclusive: 20.6 µM [inhibitor, single point]"
C/C(CC(=O)Nc1ccc(Cl)cc1Cl)=N\NC(=O)c1ccncc1,,"inconclusive: 29.1 µM [inhibitor, single point]"
Cc1oc(-c2ccccc2Cl)nc1CN(C)C(C)c1ccon1 (configuration not stated),,"inconclusive: 29.1 µM [activator, single point]"

# Further results

Compound,"activity change, negative = inhibition",Potency
O=C1[C@H]2[C@@H](c3ccc(Cl)cc3)N3C(=O)N(c4cccc(Cl)c4)C(=O)[C@@]3(Cc3ccccc3)[C@H]2C(=O)N1C1CCCCC1,,"inconclusive: 28.2 µM [activator, single point]"
O=C(O)C1CCCN(S(=O)(=O)c2cccc3cccnc23)C1 (configuration not stated),inactive: 5.15%,
Cc1cc(/C=C2\NC(=S)N(C)C2=O)ccc1N1CCCC1,inactive: 1.69%,
COc1ccc(-c2nnc(N3CCOCC3)c3ccccc23)cc1,,"inconclusive: 29.1 µM [inhibitor, single point]"
CCOc1ccc(CCNC(=O)c2ccc(OCc3c(C)noc3C)cc2)cc1OCC,,"inconclusive: 29.1 µM [inhibitor, single point]"
CCOC(=O)c1sc(N)c(C(=O)Nc2ccccc2)c1C,,"inconclusive: 20.6 µM [activator, partial curve]"
Cc1ccccc1OC(C)C(=O)NCCCN1CCOCC1 (configuration not stated),,"inconclusive: 29.1 µM [activator, partial curve, poor fit]"
Cc1ccc(CNC(=O)C23CN(Cc4ccccc4)CC2C(c2ccc([N+](=O)[O-])cc2)=NO3)o1 (configuration not stated),,"inconclusive: 20.6 µM [inhibitor, partial curve]"
CC1CCCCN1C(=O)CSc1ccc(-c2ccc(F)cc2)nn1 (configuration not stated),inactive: 24.2%,
CC(OC(=O)c1ccc(Cl)nc1)C(=O)NC1CCCC1 (configuration not stated),,"inconclusive: 10.3 µM [activator, partial curve, poor fit]"
CCOc1ccc(C(=O)NCCC(=O)N2CCC3(CC2)NCCc2[nH]cnc23)cc1OCC,,"inconclusive: 20.6 µM [activator, partial curve, poor fit]"
CC1CCc2c(C(=O)Nc3ccccn3)csc2C1 (configuration not stated),,"inconclusive: 5.17 µM [activator, partial curve]"
CCOc1ccc(CN2CCN(C(=O)c3ccccc3)CC2)cc1,,active: 9.2 µM
COCCn1cc(C(=O)N2CCN(C)CC2)c2c3ccccc3n(C)c2c1=O,inactive: -8.08%,
COc1cc(NC(=O)COc2ccc(Cl)cc2)ccc1-c1cc2ccccc2oc1=O,,"inconclusive: 23.1 µM [inhibitor, partial curve]"
O=C(/C=C/c1ccccc1F)c1cccc([N+](=O)[O-])c1,,"inconclusive: 29.1 µM [activator, single point]"
CCOc1cc(OCC)cc(C(=O)NC(=S)Nc2cccc(C(F)(F)F)c2)c1,inactive: -0.772%,
CCOc1ccccc1NC(=O)C(Sc1nnc2ccccn12)c1ccccc1 (configuration not stated),,"inconclusive: 29.1 µM [inhibitor, single point]"
O=C(CSc1ccccn1)Nc1nc2ccccc2s1,,"inconclusive: 20.6 µM [activator, single point]"
CS(=O)(=O)Nc1ccc(OCc2ccccc2)cc1,,"inconclusive: 9.2 µM [activator, partial curve]"
NC(=NC(=O)c1ccc(Cl)cc1)N1N=CCC1c1ccccc1 (configuration not stated),,"inconclusive: 29.1 µM [inhibitor, partial curve, poor fit]"
